{
  "source": "patent US20080280994A1",
  "about": "“Ascophyllum Compositions and Methods” (OCEAN NUTRITION CANDA LTD., priority 2004, published 2008)",
  "test_system": "STZ-diabetic mice",
  "test": "Sucrose challenge in diabetic mice",
  "assay_type": "in vivo",
  "details": "given 10 minutes prior to the sucrose challenge",
  "experimental": "Animal model. Mice were made diabetic as described above and were allotted to eight groups (10 animals per group) as follows: […] Treatment and Measurement. Test samples were prepared at appropriate concentrations so that the required doses were delivered in a volume of 0.2 mL/20 g body weight. Acarbose was also dissolved in 0.5% CMC ([…]) and given at a dose of 25 mg/kg BW. Ten minutes after gavaging of samples, blood was sampled from tail vein for glucose measurement (Time 0). The animals were then gavaged with sucrose (20% in water at a dose of 2 g/kg body weight). […] A group of non-diabetic mice were given an equivalent volume of saline (0.2 ml/20 g BW).",
  "note": "At least one structure is not confirmed: it was looked up by name or label, or the drawing left a doubt.",
  "data": [
    {"smiles": "C[C@H]1O[C@H](O[C@H]2[C@H](O)[C@@H](O)[C@@H](O[C@H]3[C@H](O)[C@@H](O)C(O)O[C@@H]3CO)O[C@@H]2CO)[C@H](O)[C@@H](O)[C@@H]1N[C@H]1C=C(CO)[C@@H](O)[C@H](O)[C@H]1O", "note": "(stereo partly shown) [Acarbose, acarbose]", "values": [
      {"measurement": "glucose absorption after sucrose challenge (in words)", "result": "inhibited glucose absorption at each of the time points tested"}
    ]}
  ]
}
